According to US20240366632A1, “METHODS FOR THE TREATMENT OF OCULAR ROSACEA” (INSTITUT NATIONAL DE LA SANTÉ ET DE LA RECHERCHE MÉDICALE, priority 2021, published 2024):
At least one compound was matched to its structure with a doubt left.

Experiments:
glucocorticoid receptor = target: T1, glucocorticoid receptor (Homo sapiens, UniProt P04150); settings: competition curves; cited from earlier work
T1 construct: fractions of IM-9 human B lymphoblast cell cytosol (300 μg proteins) are incubated; endogenous in cells; host or cells: IM-9 human B lymphoblast cell cytosol
T1 sequence (P04150 1-777): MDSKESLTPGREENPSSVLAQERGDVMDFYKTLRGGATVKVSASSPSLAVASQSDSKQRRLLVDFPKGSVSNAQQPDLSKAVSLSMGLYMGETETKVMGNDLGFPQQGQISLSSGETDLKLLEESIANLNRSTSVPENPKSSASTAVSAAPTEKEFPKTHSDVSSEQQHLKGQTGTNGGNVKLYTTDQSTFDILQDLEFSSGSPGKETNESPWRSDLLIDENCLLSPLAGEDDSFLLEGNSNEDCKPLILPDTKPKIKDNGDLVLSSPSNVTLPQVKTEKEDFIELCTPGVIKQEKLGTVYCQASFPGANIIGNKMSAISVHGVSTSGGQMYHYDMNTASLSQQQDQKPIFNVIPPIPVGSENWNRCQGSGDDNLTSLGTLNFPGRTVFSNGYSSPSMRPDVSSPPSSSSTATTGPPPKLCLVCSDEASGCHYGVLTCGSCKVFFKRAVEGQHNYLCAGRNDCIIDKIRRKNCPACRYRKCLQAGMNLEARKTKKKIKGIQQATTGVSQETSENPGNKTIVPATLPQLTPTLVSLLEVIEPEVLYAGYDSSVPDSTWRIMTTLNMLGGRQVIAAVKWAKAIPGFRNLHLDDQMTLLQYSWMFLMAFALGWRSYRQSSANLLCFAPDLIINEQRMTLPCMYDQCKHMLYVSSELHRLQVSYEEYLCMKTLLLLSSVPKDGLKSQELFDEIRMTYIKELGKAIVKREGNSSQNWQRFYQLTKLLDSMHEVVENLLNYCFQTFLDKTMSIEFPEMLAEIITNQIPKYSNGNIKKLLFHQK

[1] = tested on: corneal neovascularization induced by limbal deficiency; test: rat model of CN induced by de-epithelialization and limbal resection; format: in vivo
Text: FIG. 1. Corneal de-epthelialization and limbal resection model treatment schemes.
Corneal neovascularization (CN) is a severe vision-threatening complication of OR.

For `CC1(C)O[C@@H]2C[C@H]3[C@@H]4CCC5=CC(=O)C=C[C@]5(C)[C@@]4(F)[C@@H](O)C[C@]3(C)[C@]2(C(=O)CO)O1` [Triamcinolone acetonide], the “nH (Hill coefficient)” value (glucocorticoid receptor) is given as 1.05 ± 0.07 and the corneal re-epithelialization [1] is given as “delayed”.
